This assay addresses DEC1 (mouse (endogenous in MIN6)) (UniProt O35185). Put plainly: co-IP.

Amino acid sequences for entries named in this document (tags omitted).
UniProt O35185: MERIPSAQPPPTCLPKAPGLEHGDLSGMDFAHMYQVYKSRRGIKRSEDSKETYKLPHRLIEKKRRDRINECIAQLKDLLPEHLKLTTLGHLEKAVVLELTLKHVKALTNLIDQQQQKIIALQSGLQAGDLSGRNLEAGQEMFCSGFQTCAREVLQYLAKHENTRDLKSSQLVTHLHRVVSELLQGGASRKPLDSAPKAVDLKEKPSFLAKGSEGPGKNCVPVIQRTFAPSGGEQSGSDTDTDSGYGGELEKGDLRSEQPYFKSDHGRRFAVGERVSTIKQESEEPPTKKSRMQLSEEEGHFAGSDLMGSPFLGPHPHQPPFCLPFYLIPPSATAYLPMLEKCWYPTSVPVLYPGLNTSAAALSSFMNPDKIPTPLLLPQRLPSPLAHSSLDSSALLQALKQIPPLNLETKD
UniProt Q60974: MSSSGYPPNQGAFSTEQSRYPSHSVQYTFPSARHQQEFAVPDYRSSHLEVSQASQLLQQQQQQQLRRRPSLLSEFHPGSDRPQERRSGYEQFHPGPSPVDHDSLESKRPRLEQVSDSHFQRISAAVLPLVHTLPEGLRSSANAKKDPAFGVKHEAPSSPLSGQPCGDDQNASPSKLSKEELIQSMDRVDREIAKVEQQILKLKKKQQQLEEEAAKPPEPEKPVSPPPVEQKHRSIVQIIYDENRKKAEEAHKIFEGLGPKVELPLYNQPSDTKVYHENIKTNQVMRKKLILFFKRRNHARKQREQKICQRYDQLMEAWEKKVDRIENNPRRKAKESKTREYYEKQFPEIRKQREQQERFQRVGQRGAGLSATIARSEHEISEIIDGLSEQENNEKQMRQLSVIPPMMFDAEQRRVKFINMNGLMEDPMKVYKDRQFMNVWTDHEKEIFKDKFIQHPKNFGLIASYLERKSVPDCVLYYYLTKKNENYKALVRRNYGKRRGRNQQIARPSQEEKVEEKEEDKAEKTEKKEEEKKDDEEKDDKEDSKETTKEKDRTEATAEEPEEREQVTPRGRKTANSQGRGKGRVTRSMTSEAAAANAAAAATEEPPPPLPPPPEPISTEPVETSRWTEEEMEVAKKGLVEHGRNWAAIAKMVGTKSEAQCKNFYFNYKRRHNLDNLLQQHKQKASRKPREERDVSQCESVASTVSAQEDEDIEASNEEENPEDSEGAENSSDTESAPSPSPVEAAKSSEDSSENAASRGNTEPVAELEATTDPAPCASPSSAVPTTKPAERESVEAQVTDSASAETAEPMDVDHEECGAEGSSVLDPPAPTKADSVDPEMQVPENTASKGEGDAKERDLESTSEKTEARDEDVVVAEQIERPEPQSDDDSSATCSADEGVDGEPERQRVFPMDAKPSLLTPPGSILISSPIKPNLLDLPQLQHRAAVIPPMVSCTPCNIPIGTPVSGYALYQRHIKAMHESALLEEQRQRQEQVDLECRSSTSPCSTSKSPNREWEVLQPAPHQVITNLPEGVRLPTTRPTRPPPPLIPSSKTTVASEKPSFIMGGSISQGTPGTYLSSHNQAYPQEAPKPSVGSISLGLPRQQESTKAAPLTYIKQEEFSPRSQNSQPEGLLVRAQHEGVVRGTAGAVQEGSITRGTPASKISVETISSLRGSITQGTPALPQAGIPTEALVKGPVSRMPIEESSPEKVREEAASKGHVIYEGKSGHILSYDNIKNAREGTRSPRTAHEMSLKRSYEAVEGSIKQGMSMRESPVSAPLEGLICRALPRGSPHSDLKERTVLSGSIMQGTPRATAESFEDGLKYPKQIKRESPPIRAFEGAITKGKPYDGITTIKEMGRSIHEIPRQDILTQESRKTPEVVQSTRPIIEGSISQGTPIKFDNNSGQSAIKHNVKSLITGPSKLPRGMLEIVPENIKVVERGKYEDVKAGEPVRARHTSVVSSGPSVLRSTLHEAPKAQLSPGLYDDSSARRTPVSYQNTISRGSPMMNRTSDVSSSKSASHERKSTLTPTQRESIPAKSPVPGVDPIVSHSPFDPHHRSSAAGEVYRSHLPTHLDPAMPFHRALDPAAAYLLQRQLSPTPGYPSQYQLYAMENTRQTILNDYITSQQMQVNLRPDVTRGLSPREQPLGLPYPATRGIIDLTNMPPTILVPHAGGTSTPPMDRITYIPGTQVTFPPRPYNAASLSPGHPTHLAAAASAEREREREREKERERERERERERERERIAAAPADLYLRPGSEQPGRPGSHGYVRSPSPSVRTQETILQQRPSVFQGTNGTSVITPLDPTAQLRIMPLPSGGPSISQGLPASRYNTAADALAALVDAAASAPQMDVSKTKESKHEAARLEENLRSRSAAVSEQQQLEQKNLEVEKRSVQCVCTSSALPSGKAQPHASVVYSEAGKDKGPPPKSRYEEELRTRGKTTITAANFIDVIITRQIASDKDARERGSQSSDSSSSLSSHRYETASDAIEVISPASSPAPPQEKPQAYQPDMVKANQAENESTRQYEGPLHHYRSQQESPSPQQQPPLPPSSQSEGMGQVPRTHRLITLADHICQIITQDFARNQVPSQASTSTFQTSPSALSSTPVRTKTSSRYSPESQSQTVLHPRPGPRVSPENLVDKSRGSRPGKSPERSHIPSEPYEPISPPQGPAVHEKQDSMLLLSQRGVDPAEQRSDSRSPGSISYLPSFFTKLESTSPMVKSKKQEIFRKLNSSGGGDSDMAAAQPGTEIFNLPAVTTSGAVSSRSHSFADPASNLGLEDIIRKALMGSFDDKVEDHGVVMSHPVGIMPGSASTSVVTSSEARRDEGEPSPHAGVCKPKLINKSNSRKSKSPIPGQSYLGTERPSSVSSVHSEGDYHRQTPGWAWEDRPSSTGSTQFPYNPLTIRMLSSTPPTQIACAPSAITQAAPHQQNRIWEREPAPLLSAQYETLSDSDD

For 1 substance, binding results are on record in doi:10.1101/2023.08.11.552890.

These are yes or no findings as the source states them, for the method shown. Binding seen in cells or lysates may run through a third protein. Some results given as binding are weak or reduced against the parent protein; the word gives no strength.

As to NCOR1 (from UniProt Q60974 1-2453), the binding entry is “binds”.
